Test results taken from publication PMC6326806.
No constants are given. Whether binding was seen depends on the method and setting. In cells and extracts the contact can be indirect. Some results given as binding are weak or reduced against the parent protein; the word gives no strength.

Amino acid sequences for entries named in this document (tags omitted). A change or cut given only in a name is not applied to a line headed by its entry. Chains listed by the source or under a name are the forms on record and can include a tag or linker.
UniProt P20248: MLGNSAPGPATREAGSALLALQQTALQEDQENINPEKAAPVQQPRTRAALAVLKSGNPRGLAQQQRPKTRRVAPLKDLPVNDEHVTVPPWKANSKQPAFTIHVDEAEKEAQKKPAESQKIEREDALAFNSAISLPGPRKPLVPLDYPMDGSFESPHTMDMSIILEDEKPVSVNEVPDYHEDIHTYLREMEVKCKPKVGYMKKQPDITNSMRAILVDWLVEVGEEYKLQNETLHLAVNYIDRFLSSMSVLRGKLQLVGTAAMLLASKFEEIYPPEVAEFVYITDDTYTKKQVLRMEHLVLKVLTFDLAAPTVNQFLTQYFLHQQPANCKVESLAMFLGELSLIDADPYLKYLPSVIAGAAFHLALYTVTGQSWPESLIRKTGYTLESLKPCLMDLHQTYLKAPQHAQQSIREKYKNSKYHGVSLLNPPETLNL
UniProt Q13526: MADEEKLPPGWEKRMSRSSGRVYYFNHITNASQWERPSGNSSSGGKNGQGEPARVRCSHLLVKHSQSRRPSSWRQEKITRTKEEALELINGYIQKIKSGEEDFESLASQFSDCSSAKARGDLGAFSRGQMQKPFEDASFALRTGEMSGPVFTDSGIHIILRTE
UniProt P10244: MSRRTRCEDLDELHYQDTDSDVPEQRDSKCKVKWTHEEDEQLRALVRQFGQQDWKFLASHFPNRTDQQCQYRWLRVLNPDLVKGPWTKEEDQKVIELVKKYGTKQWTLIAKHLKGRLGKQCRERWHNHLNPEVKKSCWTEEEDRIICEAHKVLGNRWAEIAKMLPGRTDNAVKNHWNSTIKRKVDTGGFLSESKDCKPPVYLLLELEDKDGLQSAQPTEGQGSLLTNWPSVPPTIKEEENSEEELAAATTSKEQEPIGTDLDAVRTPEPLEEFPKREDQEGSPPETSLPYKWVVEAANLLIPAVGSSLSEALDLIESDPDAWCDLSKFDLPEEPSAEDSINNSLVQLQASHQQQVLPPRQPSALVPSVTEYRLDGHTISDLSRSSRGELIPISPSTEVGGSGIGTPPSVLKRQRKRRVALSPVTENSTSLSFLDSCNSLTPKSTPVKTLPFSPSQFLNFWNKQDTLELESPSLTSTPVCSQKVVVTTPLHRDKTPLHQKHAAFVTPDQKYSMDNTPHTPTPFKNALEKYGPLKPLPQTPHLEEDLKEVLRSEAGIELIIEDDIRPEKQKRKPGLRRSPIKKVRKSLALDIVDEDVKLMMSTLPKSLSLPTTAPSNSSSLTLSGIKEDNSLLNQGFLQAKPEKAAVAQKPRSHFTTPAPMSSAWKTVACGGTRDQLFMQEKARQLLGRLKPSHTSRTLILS
B-Myb(CBM) (P10244, form named): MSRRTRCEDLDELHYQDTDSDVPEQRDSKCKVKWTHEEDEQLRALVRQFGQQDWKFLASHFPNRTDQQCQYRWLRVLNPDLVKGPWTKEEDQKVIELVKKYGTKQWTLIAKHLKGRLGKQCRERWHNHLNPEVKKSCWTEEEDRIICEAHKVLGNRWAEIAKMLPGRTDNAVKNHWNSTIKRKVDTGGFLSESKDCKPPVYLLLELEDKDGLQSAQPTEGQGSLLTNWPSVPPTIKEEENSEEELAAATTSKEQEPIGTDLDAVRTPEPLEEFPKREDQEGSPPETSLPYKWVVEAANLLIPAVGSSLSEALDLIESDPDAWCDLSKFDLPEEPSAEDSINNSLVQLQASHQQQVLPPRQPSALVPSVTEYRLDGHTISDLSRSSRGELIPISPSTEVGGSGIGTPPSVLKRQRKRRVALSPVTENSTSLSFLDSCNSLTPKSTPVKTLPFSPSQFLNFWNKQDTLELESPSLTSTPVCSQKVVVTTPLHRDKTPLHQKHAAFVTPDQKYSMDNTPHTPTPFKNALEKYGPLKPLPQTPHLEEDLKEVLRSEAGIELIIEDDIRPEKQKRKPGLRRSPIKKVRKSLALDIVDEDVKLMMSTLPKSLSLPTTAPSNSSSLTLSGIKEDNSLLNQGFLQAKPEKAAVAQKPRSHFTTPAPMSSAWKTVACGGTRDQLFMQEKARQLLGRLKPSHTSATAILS

Key:
GFP-cyclin A = GFP-cyclin A (UniProt P20248); assay: co-IP; QT6 cells co-transfected with B-Myb(wt) or B-Myb(CBM) and GFP or GFP-cyclin A; lysates precipitated with GFP-trap beads; western blot
GST-cyclin A = GST-cyclin A (UniProt P20248); assay: pull-down; GST or GST-cyclin A on glutathione-sepharose beads incubated with lysates of QT6 cells transiently expressing B-Myb(wt) or B-Myb(CBM); western blot for B-Myb; only the target purified
GST-Pin1 [1] = molecular target: GST-Pin1 (UniProt Q13526); assay: pull-down; GST-Pin1 on glutathione-sepharose beads incubated with lysates of QT6 cells transiently expressing B-Myb proteins, with or without cyclin A/Cdk2; cells asynchronous or 24 h in serum-free or mimosine-containing medium; western blot; only the target purified
GST-Plk1 (human) = GST-Plk1 (human) (UniProt P53350); assay: pull-down; GST-Plk1 on glutathione-sepharose beads incubated with lysates of QT6 cells transiently expressing B-Myb(wt) or B-Myb(T476A); western blot; only the target purified
[2] = molecular target: endogenous B-Myb, slower migrating, phosphorylated forms (human (endogenous in Hek293 and HepG2)) (UniProt P10244); assay: co-IP; lysates of HepG2 or Hek293 cells (asynchronous, S-phase, G2/M, STLC; or roscovitine or RO-3306 for 30 min: association diminished) immunoprecipitated with pan-B-Myb, phospho-B-Myb(T487), Plk1 or control antibodies; western blot
GST-Pin1 [3] = molecular target: GST-Pin1 (UniProt Q13526); assay: condition: only cells pretreated with roscovitine or RO-3306 for 30 min; pull-down; as a1, but cells pretreated with roscovitine or RO-3306 for 30 min before lysis; only the target purified
[4] = molecular target: endogenous Pin1 (human (endogenous in HepG2)) (UniProt Q13526); assay: co-IP; HepG2 lysates (unsynchronized cells, modified ELB buffer with 150 mM NaCl, 0.5% Triton X-100) immunoprecipitated with Pin1-specific or control IgG antibodies; western blot for B-Myb, phospho-B-Myb(T487), Pin1
[5] = molecular target: endogenous Plk1 (human (endogenous in HepG2 and Hek293)) (UniProt P53350); assay: co-IP; lysates of HepG2 or Hek293 cells (asynchronous, S-phase, G2/M, STLC; or roscovitine or RO-3306 for 30 min: association diminished) immunoprecipitated with pan-B-Myb, phospho-B-Myb(T487), Plk1 or control antibodies; western blot
GST-Pin1 [6] = molecular target: GST-Pin1 (UniProt Q13526); assay: pull-down; GST-Pin1 on glutathione-sepharose beads incubated with lysates of Hek293 or HepG2 cells, untreated or treated with STLC for 12 h (binding strongly enhanced with STLC); ELB buffer, 4°C; western blot for B-Myb and phospho-B-Myb(T487); only the target purified
GFP-B-Myb(T476A) (human) = GFP-B-Myb(T476A) (human) (UniProt P10244); assay: co-IP; QT6 cells transiently expressing Myc-Plk1 with GFP-B-Myb(wt) or GFP-B-Myb(T476A); lysates precipitated with GFP-trap beads; western blot
GFP-B-Myb(wt) (human) = GFP-B-Myb(wt) (human) (UniProt P10244); assay: as above

Substance	binding (GFP-cyclin A)	binding (GST-cyclin A)	binding (GST-Pin1 [1])	binding (GST-Plk1 (human))	also measured
B-Myb(CBM) (from UniProt P10244 1-700)	no binding	no binding	binds		
B-Myb(T476A) (from UniProt P10244 1-700)				no binding	
endogenous Plk1 (from UniProt P53350 1-603) (enzyme)					binding [2]: binds
endogenous B-Myb, slower migrating, phosphorylated forms (from UniProt P10244 1-700)					binding (GST-Pin1 [3]): no binding; binding [4]: binds; binding [5]: binds; binding (GST-Pin1 [6]): binds
Myc-Plk1 (from UniProt P53350 1-603) (enzyme)					binding (GFP-B-Myb(T476A) (human)): no binding; binding (GFP-B-Myb(wt) (human)): binds
B-Myb(wt), transiently expressed (from UniProt P10244 1-700)	binds	binds	binds	binds	
